Test results taken from patent publication US20250215070A1.

Biological target: CTHRC1 (species not stated)
Assay: ELISA

Row | Binder | binding
1 | CTHRC1S-M5 (antibody, V domains shown) VH: EVQLVESGGGLVTPGGSLRLSCAASGFTFSTYSMNWVRQAPGKGLEWVSSISGSSGHIYYADSVRGRFTISRDNAKNSLYLQMNSLRAEDTAVYYCASMHYYYYLDVWGKGTTVTVSS VL: QAVVTQESALTTSPGETVTLTCRSSTGTVTTSNYVTWVQEKPDHLFTGLIGATNNRAPGVPARFSGSLIGDKAALTITGAQTEDEAIYFCALWYSNHWVFGGGTKLTVL | binds
2 | CTHRC1S-M11 (antibody, V domains shown) VH: QVTLRESGPALVKPTQTLTLTCTFSGFSLSTNVMCVSWIRQPPGKALEWLALIDWDDDKYYSTSLKTRLTISKDTSKNQVVLTMTNMDPVDTATYYCARTGITGTHYYYYYMDVWGKGTTVTVSS VL: AIQMTQSPSSLSASVGDRVTITCRASQGIRNDLGWYQQKPGKAPKLLIYAASSLQSGVPSRFSGSGFGTDFTLTISSLQPEDFATYYCLQDYNYPWTFGQGTKVEIK | binds

These are yes or no findings as the source states them, for the method shown. Binding calls can cover weak binding; strength is not graded here.
